Measurements as given in PubChem BioAssay AID2685 (National Center for Advancing Translational Sciences (NCATS), 2010).
The list shows a part of the results. These are further read-outs of the screen, such as a control signal, another cell line or another target. No call is given for them. Most of these compounds were active or inconclusive in the main read-out, so they are no random draw. Words in brackets tell the shape of the fitted curve; partial curves, single points and poor fits give uncertain potencies.

Test: qHTS Assay for Lipid Storage Modulators in Drosophila S3 Cells;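 for cell number change: cells counted by Cell Tracker Red CMTPX staining in the red channel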
Conditions: BODIPY lipid droplet fluorescence, 18-24 h; for cell number change: measured here: cell count max response, cells fed with added oleic acid
Outline: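 Drosophila S3 cells got compounds at several concentrations plus oleic acid (400 uM solution). Laser-scanning cytometry with 488 nm excitation read lipid droplets at 500-530 nm and cells at 575-640 nm. Percent activity was relative to 20 uM Triacsin C.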

[1] = measured here: cell number channel AC50, cells fed with added oleic acid
[2] = measured here: lipid fluorescence (Fed channel) AC50, cells fed with added oleic acid

SMILES | cell number change | AC50 [1] | AC50 [2]
O=C(NCc1ccncc1)C(=O)Nc1nc(C23CC4CC(CC(C4)C2)C3)cs1 | 34.6% | 3.26 µM [rising, partial curve] | 0.366 µM [rising, full curve]
O=C(COC(=O)CNC(=O)c1ccc(Cl)cc1)NC1CCCCCC1 | -11.7% | 0.00517 µM [falling, full curve, poor fit] | 0.00461 µM [falling, full curve, poor fit]
CCOc1cc(C2Nc3ccccc3NC3=C2C(=O)CC(C)(C)C3)ccc1O (stereo not drawn) | -1.31% | – | 6.51 µM [falling, single point]
COC(CNC(=O)c1ccc2nc(-c3cccs3)c(-c3cccs3)nc2c1)OC | 20.4% | – | 13 µM [rising, partial curve, poor fit]
Cc1cccc(NS(=O)(=O)c2ccc(-c3ccc(=O)[nH]n3)o2)c1 | 18.3% | – | 6.51 µM [falling, single point]
CC(=O)C1=C(C)N(CC2CC2)C(=O)N[C@H]1c1cccs1 | 0.675% | – | 29.1 µM [falling, single point]
O=C1CC(N2CCN(c3ccc(O)cc3)CC2)C(=O)N1Cc1cccs1 (stereo not drawn) | 17% | – | –
CCOC(=O)c1c(C)nc2sc(C(=O)Nc3ccccc3)c(N)c2c1-c1ccc(OC)cc1 | -13.8% | – | 20.6 µM [rising, single point]
CCCn1c(NC(=O)C2CCN(C(=O)c3ccccc3C)CC2)nc2ccccc21 | 1.02% | – | 29.1 µM [falling, single point]
CCC(O)C(C)(C)C (stereo not drawn) | 27.6% | – | 1.64 µM [rising, partial curve, poor fit]
COc1cccc(N=c2oc3ccccc3cc2-c2nc3ccccc3[nH]2)c1 | -61.7% | 23.1 µM [falling, partial curve] | 18.4 µM [falling, partial curve]
Cc1cc(NC(=O)CSc2nnc(-c3ccncc3)n2C)n(-c2ccccc2)n1 | -4.13% | 0.92 µM [falling, full curve, poor fit] | 0.00651 µM [falling, full curve, poor fit]
Cc1cc(-n2ccnc2)n2c(nc3ccccc32)c1C#N | – | 1.16 µM [rising, partial curve] | 0.461 µM [rising, partial curve, poor fit]
CCOc1ccc(NCc2ccccc2OCc2cccc(F)c2)cc1 | -15.9% | – | 20.6 µM [falling, single point]
COc1ccc(-n2c(COc3ccc(C)cc3)nnc2SCc2ccc(C#N)cc2)cc1 | 10.1% | – | 0.164 µM [rising, full curve]
Cc1c(Cl)cc(-n2cnnn2)cc1[N+](=O)[O-] | -8.3% | 0.82 µM [falling, single point] | –
N#Cc1c(NC(=S)NC(=O)c2ccccc2)sc2c1CCN(CCc1ccccc1)C2 | 7.2% | – | 29.1 µM [falling, single point]
CC(=O)Nc1ccc(C2=NN(Cc3nnc(-c4ccccc4)o3)C(=O)SC2)cc1 | 30.1% | 29.1 µM [rising, single point] | 0.411 µM [rising, full curve, poor fit]
CCCN1CCC(NC23CC4CC(CC(C4)C2)C3)CC1 | 24.3% | – | 20.6 µM [rising, single point]

SMILES | cell number change | AC50 [1] | AC50 [2]
CSc1nc2ncc3c(n2n1)CC1c2ccccc2CCN1C3=O (stereo not drawn) | 104% | 13 µM [rising, partial curve] | 14.6 µM [rising, partial curve]
O=C(CN1CCN(c2ccc(O)cc2)CC1)Nc1ccc(SC(F)F)cc1 | -11.7% | – | 29.1 µM [falling, single point]
CC1(C)Nc2ccccc2C(=O)N1c1ccccc1 | 19% | – | –
O=C(COc1ccc(Nc2ccccc2)cc1)Nc1ccncc1 | – | – | 0.58 µM [falling, single point]
CC(C)Oc1ccc(C(CC(=O)N(C)CCC#N)c2ccc(F)cc2)cc1 (stereo not drawn) | -33.3% | 0.58 µM [falling, full curve] | 1.3 µM [rising, full curve]
CCOC(=O)C1(Cc2cccc(OC)c2)CCN(CCO)CC1 | -5.14% | – | 1.46 µM [falling, partial curve, poor fit]
O=C(c1c[nH]c2ccccc12)C(Cl)c1ccccc1 (stereo not drawn) | -24% | – | 16.4 µM [falling, single point]
Cc1cc(=O)oc2cc(OCC(=O)NC3CCN(Cc4ccccc4)CC3)c(Cl)cc12 | 7.93% | – | –
CCCC1C(C(=O)OCC)=C(C)NC(C)=C1C(=O)OCC | -32.4% | 29.1 µM [falling, single point] | –
C=CCN1C(=O)/C(=C2\SC(N3CCOCC3)=NC2=O)c2cc(Br)ccc21 | 63.1% | 16.4 µM [rising, single point] | –
C=CCOCC(O)Cn1c(N2CCCC2)nc2c1c(=O)n(C)c(=O)n2C (stereo not drawn) | 3.86% | – | 29.1 µM [rising, single point]
Cc1cccc(-c2nsc(SCC(=O)c3ccc(Cl)cc3)n2)c1 | 6.79% | – | 5.17 µM [rising, partial curve]
CC(=O)c1ccc(NCC(=O)N2CCN(S(=O)(=O)c3ccccc3)CC2)cc1 | -28% | – | 6.51 µM [falling, single point]
CCCCNC(=O)C(=O)NC(C)CCc1ccccc1 (stereo not drawn) | -10.7% | 6.51 µM [rising, single point] | 0.461 µM [falling, full curve]
CCOc1ccc(S(=O)(=O)N2CCCCC2)cc1NC(=O)CCNC(=O)c1ccco1 | 69.1% | 11.6 µM [rising, partial curve] | –
N#CCCN(C(=O)COC(=O)CCc1nc2ccccc2c(=O)[nH]1)c1ccc(F)cc1 | -2.67% | – | 0.00461 µM [falling, full curve, poor fit]
COC(=O)CSc1nc2nc(C)c(Br)cc2[nH]1 | – | – | 0.0259 µM [rising, full curve, poor fit]
COc1ccccc1-n1cccc1C=O | -1.37% | 4.61 µM [falling, single point] | 18.4 µM [rising, single point]
